These are yes or no findings as the source states them, for the method shown. Some binding calls cover weakened binding; strength is not graded here.
Target: basic fibroblast growth factor (bFGF, FGF-2) (human) (UniProt P09038)
Test: method not restated in the sentence

Amino acid sequences for entries named in this document (tags omitted). A change or cut given only in a name is not applied to a line headed by its entry. Chains listed by the source or under a name are the forms on record and can include a tag or linker.
UniProt P09038: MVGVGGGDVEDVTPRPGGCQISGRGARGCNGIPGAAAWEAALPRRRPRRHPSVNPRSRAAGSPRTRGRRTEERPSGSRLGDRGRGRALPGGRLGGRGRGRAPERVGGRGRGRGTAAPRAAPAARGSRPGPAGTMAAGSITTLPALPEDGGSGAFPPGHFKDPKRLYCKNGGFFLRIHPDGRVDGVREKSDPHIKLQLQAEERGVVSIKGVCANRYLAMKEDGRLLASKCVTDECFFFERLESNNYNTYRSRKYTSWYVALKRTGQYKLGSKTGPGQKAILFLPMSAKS
FNIII1 (P02751, form named): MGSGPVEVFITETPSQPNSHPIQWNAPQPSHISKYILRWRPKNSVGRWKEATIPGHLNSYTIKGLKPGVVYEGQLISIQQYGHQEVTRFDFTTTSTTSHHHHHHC
FNIII1-7 (P02751, form named): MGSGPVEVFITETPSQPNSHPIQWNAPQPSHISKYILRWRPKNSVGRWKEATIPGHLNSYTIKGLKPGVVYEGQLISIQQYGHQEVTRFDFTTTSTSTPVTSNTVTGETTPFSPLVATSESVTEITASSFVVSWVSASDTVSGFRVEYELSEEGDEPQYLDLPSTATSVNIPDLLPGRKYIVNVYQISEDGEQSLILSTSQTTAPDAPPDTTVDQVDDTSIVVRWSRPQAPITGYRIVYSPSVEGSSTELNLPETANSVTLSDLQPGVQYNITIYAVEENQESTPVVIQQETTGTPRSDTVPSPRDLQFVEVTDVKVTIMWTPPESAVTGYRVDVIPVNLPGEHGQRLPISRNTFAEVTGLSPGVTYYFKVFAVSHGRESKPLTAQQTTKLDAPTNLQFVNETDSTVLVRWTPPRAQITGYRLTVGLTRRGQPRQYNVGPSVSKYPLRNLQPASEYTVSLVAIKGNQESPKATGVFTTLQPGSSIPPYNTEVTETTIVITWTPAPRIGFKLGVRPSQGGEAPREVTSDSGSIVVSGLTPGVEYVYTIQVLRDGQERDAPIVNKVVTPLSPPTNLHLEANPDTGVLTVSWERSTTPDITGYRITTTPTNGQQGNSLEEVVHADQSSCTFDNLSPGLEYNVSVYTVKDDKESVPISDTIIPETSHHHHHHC

binding	Substance
binds	FNIII1 (from UniProt P02751 610-702)
binds	FNIII1-7 (from UniProt P02751 610-1266)
